Binding data for 2 molecules are collected here from PMC11796359, “Identification and characterization of the functional tetrameric UDP-glucose pyrophosphorylase from Klebsiella pneumoniae” (mBio, 2024).

Experiment [1] deals with Klebsiella pneumoniae UDP-glucose pyrophosphorylase (galU gene product), wild type (Klebsiella pneumoniae) (UniProt A6TAK9). Kind of experiment: native gel or EMSA; blue native PAGE, 4.5 µg of each protein on a uniform 12% native gel, followed by in-gel activity staining; both purified. (Mobility shift assays separate free from complexed probe on a gel.)
In experiment [2] the target is Klebsiella pneumoniae GalF (galF gene product), wild type (Klebsiella pneumoniae) (UniProt Q48447). The description is as above.

These are yes or no findings as the source states them, for the method shown. Some binding calls cover weakened binding; strength is not graded here. For some assays here: Where a sequence is shown, tags or fusion partners need not be part of it.

B1: Klebsiella pneumoniae UDP-glucose pyrophosphorylase (galU gene product), wild type (enzyme, UniProt A6TAK9 1-300, looked up)
chain: MAALNSKVRKAVIPVAGLGTRMLPATKAIPKEMLPLVDKPLIQYVVNECIAAGITEIVLVTHSSKNSIENHFDTSFELEAMLEKRVKRQLLEEVQSICPPHVTIMQVRQGLAKGLGHAVLCAHPVVGDEPVAVILPDVILDEYESDLSRDNLAEMISRFDETGASQIMVEPVEDVTAYGVVDCKGESLKPGESVPMVGVVEKPKADVAPSNLAVVGRYVLSADIWPLLAKTPPGAGDEIQLTDAIDMLIEKETVEAYHMKGKSHDCGNKLGYMQAFVEYGIRHKTLGDDFKAWLETAVAK
notes: UDP-glucose pyrophosphorylase (galU gene product) of K. pneumoniae subsp. pneumoniae type strain DSM 30104 (ATCC 13883, NCTC 9633), cloned from genomic DNA; UniProt entry printed for the AlphaFold query; 34.6 kDa with tag; no cleavage of the tag is described; Also made from pETDuet-1 with the same oligomeric state; also called KpUGP; KpUGP wt; not shown: Strep-tagII, N-terminal, kept
Consider B1, for which the binding result in experiment [1] is “binds”.

B2: Klebsiella pneumoniae GalF (galF gene product), wild type (natural protein, UniProt Q48447 1-298, looked up)
chain: MNMANLKAVIPVAGLGMHMLPATKAIPKEMLPIVDKPMIQYIVDEIVAAGIKEIVLVTHSSKNAVENHFDTSYELEALLEQRVKRQLLAEVQAICPPGVTIMNVRQAQPLGLGHSILCARPVVGDNPFVVVLPDIILDGGTADPLRYNLAAMIARFNETGRSQVLAKRMPGDLSEYSVIQTKEPMVAEGQVARIVEFIEKPDEPQTLDSDLMAVGRYVLSADIWAELERTEPGAWGRIQLTDAIAELAKKQSVDAMLMTGESYDCGKKMGYMQAFVTYGMRNLKEGAKFRESIKKLLA
notes: GalF (galF gene product) of K. pneumoniae subsp. pneumoniae type strain DSM 30104 (ATCC 13883, NCTC 9633), cloned from genomic DNA into MCS1 of pETDuet-1; UniProt entry printed for the AlphaFold query; 34.3 kDa with tag; no cleavage of the tag is described; also called KpGalF; KpGalF wt
As to B2, the binding entry in experiment [2] is “binds”.
